# Source: PubChem BioAssay AID504764 (Drosophila RNAi Screening Center, 2011)
# Screen: 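Genome-wide screen for regulators of Notch-driven gene expression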 (primary screen)
# Cells: Drosophila Kc167 cells
# Reagent: long dsRNA against Drosophila genes
# Time to read-out: about 5 days (4 days dsRNA, then 24 h after transfection)
# Conditions: transfection of constitutively active membrane-tethered Notch lacking the extracellular domain, read 24 h later
# Read-out: 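Light from a Notch-responsive E(spl)m3 luciferase reporter under active Notch, with control-promoter and no-Notch reporter wells to normalise; raw counts from paired wells a and b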
# Direction: induced reporter light, run 1, well a and induced reporter light, run 1, well b: higher = more light from the Notch target reporter with active Notch; control promoter light, run 1, well a and control promoter light, run 1, well b: higher = more light from the viral control promoter (cell number, transfection, viability); uninduced reporter light, run 1, well a: higher = more light from the Notch target reporter without active Notch
# Active means: 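Hit if the duplicate-averaged log2 ratio of induced to control-promoter light gives a plate-wise z beyond ±2, or induced to uninduced beyond ±1.8; weak-control or discordant-duplicate wells dropped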
# Meaning of the calls: active = modifier hit (raised or lowered Notch signal); inactive = not a hit
# The screen tested about 22,000 reagents; shown is an unselected part of those that have a named target and a result. Over the whole deposit, 403 (1.9%) were called active. 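Unnormalised raw counts per well; ratio z-scores behind the hit calls and whether each hit raises or lowers signal are not deposited.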 Names joined by + are all predicted targets of the reagent. Not stated in the record: the amount of reagent.
Target gene,dsRNA,"induced reporter light, run 1, well a","induced reporter light, run 1, well b","control promoter light, run 1, well a","control promoter light, run 1, well b","uninduced reporter light, run 1, well a",activity call
CG8414,DRSC07168,62535,69850,79820,72435,5005,inactive
CG6415,DRSC02954,2.38e5,2.43e5,2.18e5,2.16e5,16280,inactive
CG33460,DRSC05570,1.52e5,1.91e5,2.07e5,2.81e5,17520,inactive
CG11041,DRSC06025,1.38e5,92655,1.33e5,1.31e5,12090,inactive
CG13810,DRSC08344,1.38e5,1.33e5,2.45e5,2.13e5,5728,inactive
CG13810,DRSC22838,,,,,,active
"Alg14 (ALG14, UDP-N-acetylglucosaminyltransferase subunit)",DRSC19983,71925,77010,1.56e5,97600,12040,inactive

3 of these entries, set out differently:
Target gene	dsRNA	induced reporter light, run 1, well a	induced reporter light, run 1, well b	control promoter light, run 1, well a	control promoter light, run 1, well b	uninduced reporter light, run 1, well a	activity call
CG11041	DRSC06025	1.38e5	92655	1.33e5	1.31e5	12090	inactive
CG13810	DRSC08344	1.38e5	1.33e5	2.45e5	2.13e5	5728	inactive
CG13810	DRSC22838						active

The results go on.
Target gene,dsRNA,"induced reporter light, run 1, well a","induced reporter light, run 1, well b","control promoter light, run 1, well a","control promoter light, run 1, well b","uninduced reporter light, run 1, well a",activity call
CG11779 + CG5835,DRSC15886,1.81e5,1.63e5,1.72e5,1.66e5,12240,inactive
CG14441,DRSC17934,10510,15240,24940,20650,3892,inactive
CG14247,DRSC14742,1.06e5,1.03e5,1.70e5,1.46e5,12220,inactive
CG15650,DRSC04241,55020,32460,41020,41395,1775,inactive
Nadk1b (NAD kinase 1b),DRSC05432,1.85e5,1.97e5,2.11e5,2.30e5,18240,inactive
Nadk1b (NAD kinase 1b),DRSC06964,1.91e5,1.83e5,1.67e5,1.61e5,14565,inactive
Nadk1b (NAD kinase 1b),DRSC06965,80245,75520,86035,96415,7440,inactive
Rpn9 (Regulatory particle non-ATPase 9),DRSC16840,900,855,732,878,95,inactive
CG15406,DRSC00420,85685,84770,83895,75995,4945,inactive
CG31200,DRSC15285,1.85e5,1.89e5,2.02e5,1.92e5,11120,inactive
Dop1R2 (Dopamine 1-like receptor 2),DRSC13958,1.72e5,1.78e5,1.63e5,1.78e5,13700,inactive
Dop1R2 (Dopamine 1-like receptor 2),DRSC15379,1.14e5,1.01e5,1.68e5,1.93e5,11480,inactive
hbt (headbutt),DRSC02503,94930,1.02e5,92895,91820,11415,inactive
